Tags and fusion partners may be left off the protein sequences shown.
How the values were obtained:
[1] = biological target: T1, BspQI type IIS restriction endonuclease (UniProt D2D3S6); assay: enzyme reaction in vitro; conditions: backbone cut into five fragments; 50 C 60 min; purified recombinant protein; only the site is given
T1 sequence (looked up, limits assumed): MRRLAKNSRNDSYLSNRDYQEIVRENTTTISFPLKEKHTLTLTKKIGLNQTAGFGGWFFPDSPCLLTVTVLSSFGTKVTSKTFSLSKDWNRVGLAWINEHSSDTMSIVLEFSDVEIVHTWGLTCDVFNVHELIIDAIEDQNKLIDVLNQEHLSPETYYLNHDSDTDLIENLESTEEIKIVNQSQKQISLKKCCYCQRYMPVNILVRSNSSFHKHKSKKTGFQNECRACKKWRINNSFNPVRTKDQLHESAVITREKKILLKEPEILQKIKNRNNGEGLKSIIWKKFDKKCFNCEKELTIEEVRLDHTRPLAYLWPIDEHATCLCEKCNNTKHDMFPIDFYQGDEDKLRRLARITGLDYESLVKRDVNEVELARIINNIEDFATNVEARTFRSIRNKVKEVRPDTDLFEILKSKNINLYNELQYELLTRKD

[2] = biological target: T2, TelN protelomerase (Escherichia phage N15) (UniProt Q77WP1); assay: enzyme reaction in vitro; conditions: plasmid cut into two closed linear fragments; ThermoPol buffer, 30 C 1 h; purified recombinant protein; protein details: New England BioLabs M0651S
T2 sequence (looked up, limits assumed): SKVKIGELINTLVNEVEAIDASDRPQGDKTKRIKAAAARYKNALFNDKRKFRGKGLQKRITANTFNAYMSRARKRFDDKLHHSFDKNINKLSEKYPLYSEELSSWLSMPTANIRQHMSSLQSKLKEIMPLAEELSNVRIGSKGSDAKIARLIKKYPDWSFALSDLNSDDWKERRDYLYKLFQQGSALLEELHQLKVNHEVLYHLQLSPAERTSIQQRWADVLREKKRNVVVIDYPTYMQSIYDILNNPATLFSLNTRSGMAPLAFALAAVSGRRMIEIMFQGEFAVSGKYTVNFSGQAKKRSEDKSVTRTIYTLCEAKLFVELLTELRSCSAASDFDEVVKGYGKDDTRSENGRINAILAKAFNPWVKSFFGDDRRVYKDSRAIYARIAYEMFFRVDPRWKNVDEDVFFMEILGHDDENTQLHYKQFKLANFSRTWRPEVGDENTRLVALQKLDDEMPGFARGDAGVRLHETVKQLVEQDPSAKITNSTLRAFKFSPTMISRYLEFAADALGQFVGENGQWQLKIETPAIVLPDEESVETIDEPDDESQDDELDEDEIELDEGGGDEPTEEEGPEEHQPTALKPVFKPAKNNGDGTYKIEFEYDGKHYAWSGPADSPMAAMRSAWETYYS

In the case of “GCTCTTC (double strand) [BspQI recognition sequence in vector backbone]”, the “activity on this sequence” value [1] is reported as “active”.

“TATCAGCACACAATTGCCCATTATACGCGCGTATAATGGACTATTGTGTGCTGATA (double strand) [TelN recognition sequence]” was tested, and the “activity on this sequence” value [2] was “active”.

Source: patent US20240084285
